{
  "source": "paper PMC7557599",
  "about": "“Cyclic Peptide-Gadolinium Nanoparticles for Enhanced Intracellular Delivery” (Pharmaceutics, 2020)",
  "assay": "Encapsulation of camptothecin by peptide-GdNPs, fluorescence spectroscopy",
  "format": "physicochemical",
  "data": [
    {"smiles": "CC[C@@]1(O)C(=O)OCc2c1cc1n(c2=O)Cc2cc3ccccc3nc2-1", "note": "[camptothecin]", "values": [
      {"measurement": "fluorescence emission maximum of CPT in the presence of [(WR)5C]-GdNPs", "setting": "1:1 molar ratio, after 2-h incubation, blue shift", "result": 417, "unit": "nm"},
      {"measurement": "fluorescence emission maximum of CPT alone", "setting": "CPT alone", "result": 432, "unit": "nm"}
    ]}
  ]
}
